{"source": "paper PMC10696396", "about": "“HilE represses the activity of the Salmonella virulence regulator HilD via a mechanism distinct from that of intestinal long-chain fatty acids” (The Journal of Biological Chemistry, 2023)", "target": "T1, HilC (Salmonella enterica) (UniProt B8Y8F2)", "T1 sequence": "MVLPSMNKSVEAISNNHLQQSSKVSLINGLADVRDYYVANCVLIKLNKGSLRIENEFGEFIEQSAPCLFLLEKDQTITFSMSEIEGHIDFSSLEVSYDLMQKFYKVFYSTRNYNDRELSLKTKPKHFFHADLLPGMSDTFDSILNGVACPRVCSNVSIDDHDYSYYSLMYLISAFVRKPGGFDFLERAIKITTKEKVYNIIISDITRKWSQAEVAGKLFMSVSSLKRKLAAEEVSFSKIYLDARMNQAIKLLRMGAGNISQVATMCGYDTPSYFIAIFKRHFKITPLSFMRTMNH", "test": "SEC-MALS; Superdex 75 Increase 10/300 GL, 50 mM NaH2PO4 pH 7.0, 200 mM NaCl, 0.5 ml/min; protein concentrations of 100 μM (Fig. 4, D and E); both purified", "note": "No constants are given. Whether binding was seen depends on the method and setting."}
{"substance": "HilE (Salmonella enterica)", "values": [{"measurement": "binding", "value": "no binding"}]}
